From the supplement of paper PMC11732987, “Enantioselective OTUD7B fragment discovery through chemoproteomics screening and high-throughput optimisation” (Communications Chemistry, 2025) come the findings set out here.

Protein sequences, listed by entry. Tags and fused reporters are not part of them. Lines headed by an entry give the natural chain unless they say otherwise; changes in a name come on top.
UniProt Q09472: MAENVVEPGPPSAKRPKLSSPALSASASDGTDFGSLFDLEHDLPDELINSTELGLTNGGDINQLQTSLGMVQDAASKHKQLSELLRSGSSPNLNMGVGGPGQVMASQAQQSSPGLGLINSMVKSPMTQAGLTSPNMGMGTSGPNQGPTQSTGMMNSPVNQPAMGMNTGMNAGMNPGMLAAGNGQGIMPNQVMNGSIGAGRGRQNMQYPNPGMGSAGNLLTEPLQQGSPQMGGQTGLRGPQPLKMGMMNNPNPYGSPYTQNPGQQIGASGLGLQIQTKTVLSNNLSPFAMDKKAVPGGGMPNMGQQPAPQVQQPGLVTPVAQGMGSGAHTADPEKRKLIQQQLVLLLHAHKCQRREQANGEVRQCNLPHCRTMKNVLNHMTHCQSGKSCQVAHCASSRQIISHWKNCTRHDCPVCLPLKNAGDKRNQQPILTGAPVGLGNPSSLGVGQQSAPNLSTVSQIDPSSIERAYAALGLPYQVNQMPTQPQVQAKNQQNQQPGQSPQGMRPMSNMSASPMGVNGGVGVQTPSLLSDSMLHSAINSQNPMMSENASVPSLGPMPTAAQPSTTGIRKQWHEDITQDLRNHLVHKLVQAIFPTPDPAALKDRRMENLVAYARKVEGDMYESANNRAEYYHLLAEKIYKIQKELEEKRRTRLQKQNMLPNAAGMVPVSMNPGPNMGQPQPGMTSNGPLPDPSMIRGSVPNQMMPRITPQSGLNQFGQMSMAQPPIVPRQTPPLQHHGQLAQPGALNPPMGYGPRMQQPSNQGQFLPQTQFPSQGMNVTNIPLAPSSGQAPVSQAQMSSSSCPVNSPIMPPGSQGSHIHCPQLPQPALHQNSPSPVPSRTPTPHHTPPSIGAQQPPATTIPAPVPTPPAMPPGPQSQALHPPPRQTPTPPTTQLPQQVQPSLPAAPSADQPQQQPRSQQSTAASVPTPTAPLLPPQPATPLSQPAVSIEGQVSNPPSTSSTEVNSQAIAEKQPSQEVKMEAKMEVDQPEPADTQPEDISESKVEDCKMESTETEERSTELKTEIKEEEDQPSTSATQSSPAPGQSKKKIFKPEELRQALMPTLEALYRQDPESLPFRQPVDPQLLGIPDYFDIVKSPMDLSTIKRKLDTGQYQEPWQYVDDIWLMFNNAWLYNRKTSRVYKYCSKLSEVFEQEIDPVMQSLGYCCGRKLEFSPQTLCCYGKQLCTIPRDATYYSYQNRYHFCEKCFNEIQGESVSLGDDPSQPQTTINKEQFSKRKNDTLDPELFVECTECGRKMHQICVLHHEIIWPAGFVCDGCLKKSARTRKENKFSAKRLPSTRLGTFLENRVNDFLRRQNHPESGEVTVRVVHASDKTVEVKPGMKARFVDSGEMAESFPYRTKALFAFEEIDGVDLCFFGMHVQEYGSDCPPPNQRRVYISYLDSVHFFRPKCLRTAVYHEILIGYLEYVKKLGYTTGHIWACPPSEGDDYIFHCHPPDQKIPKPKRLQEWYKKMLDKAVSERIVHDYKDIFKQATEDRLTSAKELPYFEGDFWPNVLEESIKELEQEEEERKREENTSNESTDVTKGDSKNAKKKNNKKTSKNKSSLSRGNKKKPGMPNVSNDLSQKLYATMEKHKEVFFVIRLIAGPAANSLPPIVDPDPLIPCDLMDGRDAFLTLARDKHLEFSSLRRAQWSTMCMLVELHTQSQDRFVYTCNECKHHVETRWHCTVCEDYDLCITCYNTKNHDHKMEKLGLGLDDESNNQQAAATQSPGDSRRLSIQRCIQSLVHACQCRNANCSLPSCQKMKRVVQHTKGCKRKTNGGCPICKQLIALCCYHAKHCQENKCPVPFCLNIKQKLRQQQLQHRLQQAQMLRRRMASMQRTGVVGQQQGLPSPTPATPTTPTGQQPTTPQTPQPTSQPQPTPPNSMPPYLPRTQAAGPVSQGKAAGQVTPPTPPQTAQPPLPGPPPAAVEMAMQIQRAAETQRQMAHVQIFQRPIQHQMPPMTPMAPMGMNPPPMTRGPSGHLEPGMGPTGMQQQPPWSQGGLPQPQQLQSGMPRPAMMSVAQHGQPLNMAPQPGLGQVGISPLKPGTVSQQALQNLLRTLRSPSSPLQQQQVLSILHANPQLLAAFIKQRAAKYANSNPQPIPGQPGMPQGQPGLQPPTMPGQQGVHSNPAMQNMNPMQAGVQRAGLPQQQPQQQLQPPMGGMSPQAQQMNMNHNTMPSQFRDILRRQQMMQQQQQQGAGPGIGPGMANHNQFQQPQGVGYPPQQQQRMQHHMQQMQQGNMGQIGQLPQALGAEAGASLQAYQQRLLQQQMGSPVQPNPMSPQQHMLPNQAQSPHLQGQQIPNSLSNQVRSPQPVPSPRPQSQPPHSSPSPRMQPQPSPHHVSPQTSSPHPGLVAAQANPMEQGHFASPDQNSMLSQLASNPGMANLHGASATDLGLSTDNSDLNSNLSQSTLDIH

This is one part of the list. The data scatter; read single values as rough.

For one test, the target named is T1, EP300 C1204 (UniProt Q09472).
T1 sequence (whole entry): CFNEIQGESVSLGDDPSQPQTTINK
The test can be described thus: log2 mean competition ratio of IA-DTB cysteine labelling (DMSO/compound) (log2 ratio); higher = stronger cysteine engagement by compound. Particulars: 50 µM; treatment time: 4 h; cell line lysate: HEK293T. Here is the method: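 IA-DTB competitive cysteine chemoproteomics in HEK293T RIPA lysate. Lysates were treated with compound 29 or 30 at 50 or 200 µM for 4 h, then IA-DTB (500 µM, 1 h), trypsin-digested, NeutrAvidin-enriched and analysed by diaPASEF. Competition ratio = intensity DMSO / intensity compound (n=4 treated, n=64 DMSO); binding: mean log2 CR ≥ 1 and p ≤ 0.05 plus QC filters. Target is the cysteine site.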
For `O=C(CCl)N[C@@H]1CCCc2ccccc21`, the “log2 mean competition ratio” value was -0.329.

Consider `O=C(CCl)N[C@H]1CCCc2ccccc21`, for which the “log2 mean competition ratio” value was -0.253.

The test is the same for the next values; noted with them: 200 µM; treatment time: 4 h; cell line lysate: HEK293T.
As to `O=C(CCl)N[C@@H]1CCCc2ccccc21`, the “log2 mean competition ratio” value is -0.38.

Regarding `O=C(CCl)N[C@H]1CCCc2ccccc21`, the “log2 mean competition ratio” value was 0.126.
